Measurements as given in PubChem BioAssay AID588497 (NMMLSC, 2011).
In all, about 360,000 compounds went through this assay and about 780 (0.22%) were called active. This list was built around the results that the source calls inconclusive (neither active nor inactive); the mix of calls is not that of the screen. Cut-off read from the data, not from the text of the source: active = inhibition above about 35% (passing the limit was not always enough); inconclusive = no clear call, values can overlap the other calls.

tested on: Botulinum neurotoxin type F light chain protease (Clostridium botulinum); test: BoNT/F light chain protease inhibitors, primary screen, biochemical, flow cytometry, MLPCN library (AID 588497); settings: Multiplex microsphere protease cleavage assay, at 10 µM, stronger effect = higher value; note: plate controls were buffer without enzyme for full effect and enzyme alone for no effect

Row | Structure (SMILES) | inhibition
1 | COc1ccccc1NCCC(=O)OCC(=O)Nc1ccc(Cl)cn1 | inconclusive: -40.3%
2 | CCOC(=O)N1CCN(S(=O)(=O)Cc2ccccc2)CC1 | inconclusive: 35%
3 | Cc1ccc(Nc2ccc([N+](=O)[O-])cn2)cc1Cl | inconclusive: 1.1%
4 | Cc1cc2ncn(C(=O)N3CCCCCC3)c2cc1C | inconclusive: -5.7%
5 | COC(=O)C1=C(C)N(c2ccc(OC)cc2)C(C)=C(C(=O)OC)C1c1ccc(OC)cc1 | inconclusive: -19.7%
6 | O=C(NCCc1ccccc1)c1cc2ncc(Br)cn2n1 | inactive: 0.1%
7 | COc1ccc(NC(=S)NCc2ccccc2)c(OC)c1 | inconclusive: 10.6%
8 | O=C(N/N=C/c1cc2cc3c(cc2nc1Cl)OCO3)c1ccncc1 | inconclusive: -1.3%
9 | CN(C(=O)c1cccc(S(=O)(=O)N2CCCCC2)c1)C1CCS(=O)(=O)C1 (configuration not stated) | inconclusive: 0.9%
10 | Cc1ccc(-c2nc3c(c(=O)c4ccccc4n3C)c(=O)n2-c2ccc(F)cc2)cc1 | inconclusive: 110%
11 | N#Cc1c(N)c(C(=O)c2ccccc2)n2ccccc12 | inconclusive: -4.2%
12 | Cc1cccc(C)c1N(CC(=O)NC1CCCCC1)C(=O)c1csnn1 | inactive: -0.8%
13 | CCc1nc2ccc(C(=O)NCCOc3ccc(OC)cc3)cn2c1N(C)C(=O)C1CCCCC1 | inactive: -1.4%
14 | CN1CCC=C(C(=O)N2c3ccccc3Sc3ccc(Cl)cc32)C1 | inconclusive: -77.1%
15 | COc1ccc(-c2cc(C(=O)N(C)Cc3ccccc3)c3ccccc3n2)cc1 | inconclusive: -11.4%
16 | COc1cccc(CN2CCN(CCCc3ccccc3)C(CCO)C2)c1O (configuration not stated) | inconclusive: 1.2%
17 | COc1ccc(CS(=O)(=O)CC2(O)CCN(C(=O)c3cccc(C(F)(F)F)c3)CC2)cc1 | inactive: 2.6%
18 | O=C(Oc1ccc(N(C(=O)c2ccncc2)S(=O)(=O)c2cccs2)cc1)c1ccncc1 | inactive: -0.4%
19 | CCOc1ccc(NC(=O)CSc2nccn(-c3ccc4c(c3)OCCO4)c2=O)cc1 | inactive: -13.6%
20 | COc1ccc(CCC(=O)Nc2nccs2)cc1OC | inactive: -8.5%
21 | CSc1ccc(CN2CCC(CO)(CCOc3ccccc3)CC2)cc1 | inconclusive: 24.8%
22 | O=C(Nc1ccncc1)c1ccccc1Cl | inactive: 9%
23 | O=[N+]([O-])c1cccnc1Sc1ccccc1Cl | inconclusive: -7.9%

Row | Structure (SMILES) | inhibition
24 | CCn1cc(C(=O)Nc2ccc(Cl)cc2Cl)cn1 | inconclusive: 19.2%
25 | COc1ccc(CN2CCN(Cc3c[nH]c4ccccc34)CC2CCO)c(F)c1 (configuration not stated) | inconclusive: -24.1%
26 | CCOC(=O)C(C)(C)Oc1cccc2c1S(=O)(=O)c1ccccc1-2 | inconclusive: 116%
27 | Cc1ccc(S(=O)(=O)N2CCN(C(=O)COC(=O)COc3ccccc3C(C)C)CC2)c(C)c1 | inactive: 7.8%
28 | Cc1cc(N2CCCCC2)nc2ccccc12 | inactive: -5%
29 | COc1cccc(C(c2nnnn2C(C)(C)C)N2CCN(C/C=C/c3ccccc3)CC2)c1OC (configuration not stated) | inactive: -2%
30 | CCOC(=O)c1nn(-c2ccc(C)c(C)c2)c(=O)c(C#N)c1C | inconclusive: -8.1%
31 | O=C(Nc1ccccc1)N1CCCC1c1cccs1 (configuration not stated) | inconclusive: 31.7%
32 | COc1ccccc1CN1CCCC(N2CCN(c3ccccc3OC)CC2)C1 (configuration not stated) | inconclusive: 22.8%
33 | COc1ccc(Cc2nc3ccc(C(=O)NCCSC)cc3o2)cc1 | inconclusive: 33.7%
34 | COc1cccc(N2CCN(C(=O)CN3C(=O)NC(C)(c4ccc5ccccc5c4)C3=O)CC2)c1 (configuration not stated) | inactive: 1.1%
35 | O=c1cc(-c2ccccc2)nc2nc(COc3ccccc3)[nH]n12 | inconclusive: -38.5%
36 | O=C(COc1ccccc1)N1CCN(C2CC3CCC2C3)CC1 (configuration not stated) | inconclusive: -9.3%
37 | NC(=O)c1ccccc1NC(=O)COC(=O)C1(c2ccccc2)CC1 | inconclusive: -0.4%
38 | O=c1c(C(c2ccc(Br)cc2)c2c(O)nc3n(c2=O)CCS3)c(O)nc2n1CCS2 | inconclusive: 79.4%
39 | N#C/C(=C\Nc1ccc2c(c1)OCCO2)c1nc(-c2ccccc2)cs1 | inactive: 1.2%
40 | COc1cccc(S(=O)(=O)N(C)C[C@H]2OCc3cnnn3CCCC(=O)N([C@H](C)CO)C[C@@H]2C)c1 | inactive: -1.4%
41 | O=C(CCS(=O)(=O)c1ccccc1)Nc1ccc(N2CCN(Cc3ccccc3)CC2)cc1 | inactive: -13%
42 | COc1ccc(OCc2nn3c(Cn4cnc5ccccc54)nnc3s2)cc1 | inactive: -2.3%
43 | CC(=O)NCc1nc2ccccc2n1C(C)C | inactive: 0.1%
44 | O=C(CCC(=O)N1CCOc2ccccc21)N1CCN(c2ccccc2)CC1 | inactive: -2.6%
45 | CCOC(=O)CN1C(=O)CC(c2ccccc2)C1=O (configuration not stated) | inconclusive: 8%
46 | O=C(NC1CCN(S(=O)(=O)c2ccc(F)cc2)CC1)c1ccc(F)cc1 | inconclusive: -8.5%

By substructure, the compounds so far containing two or more sulfur atoms
Row | Structure (SMILES) | inhibition
9 | CN(C(=O)c1cccc(S(=O)(=O)N2CCCCC2)c1)C1CCS(=O)(=O)C1 (configuration not stated) | inconclusive: 0.9%
18 | O=C(Oc1ccc(N(C(=O)c2ccncc2)S(=O)(=O)c2cccs2)cc1)c1ccncc1 | inactive: -0.4%
38 | O=c1c(C(c2ccc(Br)cc2)c2c(O)nc3n(c2=O)CCS3)c(O)nc2n1CCS2 | inconclusive: 79.4%

Going on with the list.

Row | Structure (SMILES) | inhibition
47 | CC1CC(C)CN(C(C(=O)NC2CCCCC2)c2cc3ccccc3o2)C1 (configuration not stated) | inactive: 9.2%
48 | O=C(OCc1ccccc1)N1CCCCC1c1c(Cl)cccc1Br (configuration not stated) | inactive: -7.9%
49 | Cc1ccccc1NC(=O)c1cccc(C(=O)Nc2ccccc2C)c1 | inconclusive: 25.2%
50 | Cc1ccc(NC(=S)NCCO)c(C)c1 | inconclusive: 1.5%
51 | COc1ccc(CC(=O)NNc2ncnc3c2cnn3Cc2ccccc2)cc1OC | inconclusive: 181%
52 | CCOc1c(Br)cc(/C=C2\N=C(C)OC2=O)cc1Br | inconclusive: 10.3%
53 | CCCS(=O)(=O)c1c(S(=O)(=O)CCC)c2c(N)cccn2c1C(=O)c1ccccc1 | inactive: -1.2%
54 | Cc1noc2ncnc(SCc3ccc(C(F)(F)F)cc3)c12 | inconclusive: -41%
55 | COc1cc(/C=C(/C#N)C(=O)NCCCc2ccccc2)ccc1OCC(=O)O | inconclusive: 9.1%
56 | COc1ccc(C(=O)NCCOC(C)C)cc1OC1CCN(C(C)=O)CC1 | inconclusive: 18.5%
57 | COc1cc(Cl)c(CN2CCC(CCC(=O)NC3CC3)CC2)cc1OC | inconclusive: 4.1%
58 | Cc1ccc(NC(=O)C2CCCN(S(=O)(=O)c3c(C)noc3C)C2)cc1F (configuration not stated) | inconclusive: 5.9%
59 | O=c1c2ccccc2nc(-c2ccccc2)n1-c1ccccc1O | inconclusive: -11.6%
60 | COC(=O)c1cc(S(=O)(=O)NCc2ccc(S(N)(=O)=O)cc2)oc1C | inconclusive: 44.7%
61 | Cn1c(SCC(=O)N2CCOCC2)nnc1-c1ccc2ncccc2c1 | inconclusive: -31.9%
62 | O=C(O)Cn1nnc(-c2ccc(OCc3ccccc3)cc2)n1 | inconclusive: 42.3%
63 | COc1ccc2[nH]cc(C(=O)CNc3nc(C)cs3)c2c1 | inconclusive: -32.5%
64 | COCCNC(=O)C1(C)CCCN(C(=O)c2cc(C)oc2C)C1 (configuration not stated) | inactive: 6.1%
65 | O=C(N/N=C\c1ccc(Cl)s1)c1cccs1 | inactive: -2.2%
66 | O=[N+]([O-])c1cccnc1Sc1ccc(F)cc1 | inconclusive: 2.1%
67 | COC(=O)CN1C(CN2CCOCC2)=Nc2ccc(Br)cc2C1c1ccccc1 (configuration not stated) | inconclusive: -56.1%
68 | O=C(Nc1ccccc1)c1ccccc1NC(=O)c1ccccc1[N+](=O)[O-] | inconclusive: -84.1%
69 | COc1ccc(C2SCC(=O)N2Cc2ccccc2)cc1 (configuration not stated) | inconclusive: 12.6%

Reformatted: entries from further up.
Row	Structure (SMILES)	inhibition
52	CCOc1c(Br)cc(/C=C2\N=C(C)OC2=O)cc1Br	inconclusive: 10.3%
53	CCCS(=O)(=O)c1c(S(=O)(=O)CCC)c2c(N)cccn2c1C(=O)c1ccccc1	inactive: -1.2%

The list continues:

Row | Structure (SMILES) | inhibition
70 | COc1ccc(N2C(=O)CC(Sc3nc(C)cc(C)n3)C2=O)cc1OC (configuration not stated) | inconclusive: -1.9%
71 | NNC(=O)c1ccc(COCC(F)(F)F)cc1 | inconclusive: 87.6%
72 | CCOC(=O)N1CCC(NC(=O)CCc2c(C)nc3c(c(C)nn3C(C)(C)C)c2C)CC1 | inactive: 4.2%
73 | O=C(O)Cn1c(Cc2ccccc2)nc2ccccc21 | inconclusive: 39.5%
74 | COc1ccccc1N1CCN(/N=C\c2ccccc2)CC1 | inconclusive: 23.2%
75 | COc1ccc(CNC(=S)Nc2cccc(F)c2)cc1 | inconclusive: -20.6%
76 | Cc1ccc(C(=O)Cn2cncn2)cc1 | inconclusive: 2%
77 | C=CCNC(=S)NNC(=O)c1ccccc1 | inactive: 9.4%
78 | CC1(C)Cc2cccc(C(=O)NCc3ccco3)c2O1 | inconclusive: -124%
79 | COC(=O)CC1COc2ccccc2N1C(=O)c1ccc(C(C)(C)C)cc1 (configuration not stated) | inactive: -0.2%
80 | Cc1n[nH]c(=O)c2c(NC(=O)CSc3nnnn3-c3ccccc3)oc(C)c12 | inconclusive: -1.2%
81 | CCCCn1c(O)c(/C(C)=N/NC(=O)Nc2ccccc2)c(=O)[nH]c1=O | inconclusive: 50.6%
82 | Cc1ccc(NC(=O)N2CCN(c3ncccc3C(F)(F)F)CC2)cc1 | inactive: -6%
83 | Cc1cc(SCC(=O)O)nc2ccccc12 | inconclusive: -144%
84 | CCCNC(=O)N(CCOC)CC1CCCN(C2Cc3ccccc3C2)C1 (configuration not stated) | inconclusive: 10.4%
85 | CC(C)(C)c1csc(NC(=O)c2cccnc2)n1 | inconclusive: -52.1%
86 | CCNC(=O)CN1c2cccc3cccc(c23)S1(=O)=O | inconclusive: -32.8%
87 | CCOc1ccc(OCCC(=O)N(CCC2=CCCCC2)c2c(N)n(Cc3ccccc3)c(=O)[nH]c2=O)cc1 | inconclusive: 7.4%
88 | CCOC(=O)N1CCN(C(=O)CSc2nnc(-c3cc(OC)ccc3OC)o2)CC1 | inconclusive: -7.3%
89 | O=c1c2ccccc2nc(/C=C/c2ccc(Cl)cc2)n1CCO | inconclusive: 23.9%
90 | CCOC(=O)Cc1csc(NC(NC(=O)OCC)(C(F)(F)F)C(F)(F)F)n1 | inconclusive: -25.6%
91 | CC(=O)Oc1ccc(C2(C)CC(C)(C)Oc3cc(OC(C)=O)ccc32)c(OC(C)=O)c1 (configuration not stated) | inconclusive: -19.1%
92 | CCCCn1c(O)c(C(C)=Nc2ccc3c(c2)CCC3)c(=O)[nH]c1=O | inconclusive: 14.2%
